Data source: PubChem BioAssay AID686938 (Drosophila RNAi Screening Center, 2013)

Test: 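Knock-downs reducing store-operated calcium influx in Drosophila cells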 (primary screen)
Cell system: Drosophila S2R+ cells
Reagent: long dsRNA against Drosophila genes, about 0.25 µg dsRNA per well, roughly 10,000 cells
Duration: 5 days of knock-down before the calcium assay
Treatment: thapsigargin (SERCA pump blocker) to empty calcium stores; entry signal taken 4 min after adding it
Measurement: 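Per-well fluo-4 fluorescence in two replicates, unnormalised, measured in resting cells and 4 min after store depletion by the SERCA blocker thapsigargin; ratio of the two present in few wells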
Reading the numbers: calcium entry signal: higher = stronger calcium signal after store depletion; entry to resting ratio: higher = more calcium entry relative to resting level; resting calcium signal: higher = higher resting calcium signal
Call rule: 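Hit if the duplicate-averaged plate z-score for entry over resting signal is under −3; wells with weak total dye signal (Fmax z < −2) or more than 5 off-targets removed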
Meaning of the calls: active = strongly reduced calcium entry; inactive = no strong reduction
The deposit covers about 23,000 reagents; this is an unselected part of those that have a named target and a result. Of all reagents, 75 (0.33%) were called active. 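Raw plate signals without normalisation; calls rest on plate z-scores that were not deposited; ratio present for only 364 wells.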 Entries without a mark were called inactive. A plus sign joins genes that one reagent is predicted to hit. No sequences are given here. Not given: the dose of the treatment.

predicted target	dsRNA	calcium entry signal, replicate 1 (fluorescence units)	calcium entry signal, replicate 2 (fluorescence units)	entry to resting ratio	resting calcium signal, replicate 1 (fluorescence units)	resting calcium signal, replicate 2 (fluorescence units)
CG7840	DRSC03075	5.10e7			2.45e7	
DIP1 (DISCO Interacting Protein 1)	DRSC20818	3.80e7	3.62e7		2.06e7	1.81e7
alpha4GT2 (alpha1,4-galactosyltransferase 2)	DRSC13732	3.47e7	3.79e7		1.62e7	1.66e7
alpha4GT2 (alpha1,4-galactosyltransferase 2)	DRSC15905	4.00e7	6.42e7		2.09e7	2.59e7
Etfb (Electron transfer flavoprotein beta subunit)	DRSC16324	2.97e7	3.82e7		1.38e7	1.82e7
CG17721	DRSC15253	3.04e7	2.80e7		1.52e7	1.40e7
Ufd1 (Ubiquitin fusion-degradation 1-like)	DRSC10607	3.91e7	2.88e7		2.59e7	1.35e7
Reepl1 (Receptor accessory protein like 1)	DRSC19418	3.51e7	4.47e7		1.75e7	1.98e7
AlkB	DRSC19115	3.10e7	3.32e7		1.60e7	1.56e7
CG10680	DRSC02093	4.43e7	3.92e7		2.17e7	1.68e7
TrpA1 (Transient receptor potential cation channel A1)	DRSC10544	3.37e7	4.39e7		1.65e7	2.10e7
CG17287	DRSC06659	4.13e7	3.84e7		1.58e7	1.85e7
CG34248	DRSC09426	3.08e7	5.66e7		1.52e7	2.62e7
CG6659	DRSC20003	3.59e7	2.76e7		1.66e7	1.43e7
cysu (Curly Su)	DRSC15902	4.22e7	4.88e7		2.02e7	7.46e7
CG12502	DRSC08281	2.13e7	3.43e7		1.15e7	1.53e7
CG12502	DRSC23247	3.77e7	3.39e7		2.21e7	1.54e7
CG33098	DRSC22903	4.39e7	3.89e7		2.35e7	1.84e7
CG43861	DRSC02170	3.76e7	4.28e7		1.89e7	1.90e7
CG43861	DRSC02308	3.57e7	3.77e7		1.79e7	1.95e7
NiPp1 (Nuclear inhibitor of Protein phosphatase 1)	DRSC07307	4.28e7	4.38e7		2.00e7	2.03e7
Dpy-30L1 (Dpy-30-like 1)	DRSC02959	2.13e7	3.65e7		1.02e7	1.51e7
CG12620	DRSC02177	4.20e7	2.42e7		1.89e7	1.12e7
eIF4EHP	DRSC13653	4.00e7	3.59e7		1.88e7	1.90e7
eIF4EHP	DRSC14265	3.22e7	3.19e7		1.61e7	1.44e7
CG11617	DRSC00321	3.48e7	3.91e7		1.90e7	1.63e7
CG11617	DRSC21786	3.88e7	3.23e7		2.00e7	1.53e7
CG6511	DRSC10656	3.57e7	5.41e7		1.69e7	2.45e7
dj (don juan)	DRSC12625	4.54e7	4.11e7		2.14e7	2.04e7
Bfc (Booster for Crq)	DRSC08623	3.01e7	4.44e7		1.63e7	1.97e7
EMC2B + EMC2A	DRSC15241	3.53e7	4.58e7		1.58e7	5.54e7
primo-2 + primo-1	DRSC16511	2.94e7	4.11e7		1.50e7	5.99e7
TwdlR (TweedleR)	DRSC14736	3.09e7	3.70e7		1.54e7	1.69e7
CG15471	DRSC18054	2.60e7	4.24e7		1.33e7	1.98e7
Cyp313a1 (Cytochrome P450 313a1)	DRSC16624	2.43e7	4.21e7		1.21e7	6.07e7
Eps-15 (Epidermal growth factor receptor pathway substrate clone 15)	DRSC04288	4.45e7			2.23e7	
Gyc89Db (Guanylyl cyclase at 89Db)	DRSC15009	5.35e7	2.55e7		2.25e7	1.16e7
CG13659	DRSC14660	3.47e7	4.56e7		1.87e7	1.92e7
CG14374	DRSC14834	2.72e7	4.29e7		1.47e7	6.38e7
CNMa (CNMamide)	DRSC08405	3.80e7	3.48e7		1.97e7	1.72e7
Tsp42Ea (Tetraspanin 42Ea)	DRSC04982	3.98e7	3.48e7		1.72e7	1.52e7
Tsp42Ea (Tetraspanin 42Ea)	DRSC06792	3.32e7	3.64e7		1.51e7	1.61e7
CG5793 + Obp93a	DRSC15220	3.29e7	3.65e7		6.18e7	1.66e7
CG4884	DRSC15671	3.63e7	4.13e7		1.79e7	1.64e7
asRNA:CR30267 + CG42260	DRSC03953	3.96e7	6.86e7		1.86e7	3.05e7
ATPsynB (ATP synthase, subunit B)	DRSC09659	6.13e7	5.60e7		3.91e7	2.28e7
CG13365	DRSC17899	3.13e7	4.73e7	1.9	1.65e7	1.95e7
CG7763	DRSC07043	3.09e7	3.51e7		1.51e7	1.71e7
Arglu1 (Arginine and glutamate rich 1)	DRSC02909	4.05e7	5.21e7		1.70e7	2.01e7
Gos28 (Golgi SNARE, 28 kDa)	DRSC16292	4.15e7	3.67e7		4.88e7	1.70e7
Gos28 (Golgi SNARE, 28 kDa)	DRSC22859	2.13e7	2.72e7		1.07e7	1.26e7
CG6602	DRSC10673	2.59e7	3.06e7		1.14e7	1.36e7
Dis3	DRSC16034	2.28e7 (active)	2.15e7		1.65e7	1.48e7
obst-I (obstructor-I)	DRSC08339	4.37e7	3.57e7		1.87e7	1.73e7
Corp (Companion of reaper)	DRSC17771	2.60e7	2.79e7		1.26e7	1.33e7
CG8490	DRSC07194	3.43e7	4.21e7		1.54e7	1.95e7
ntc (nutcracker)	DRSC08166	4.49e7	3.52e7		2.74e7	1.42e7
grass (Gram-positive Specific Serine protease)	DRSC15911	4.12e7	5.56e7		2.17e7	2.51e7

Only “calcium entry signal, replicate 2 (fluorescence units)”, for 7 of the entries above:
CG5793 + Obp93a [DRSC15220]: 3.65e7
CG4884 [DRSC15671]: 4.13e7
asRNA:CR30267 + CG42260 [DRSC03953]: 6.86e7
ATPsynB (ATP synthase, subunit B) [DRSC09659]: 5.60e7
CG13365 [DRSC17899]: 4.73e7
CG7763 [DRSC07043]: 3.51e7
Arglu1 (Arginine and glutamate rich 1) [DRSC02909]: 5.21e7
